In patent US20130072459A1, “PHARMACEUTICAL COMPOSITION FOR THE PREVENTION OR THE TREATMENT OF NON-ALCOHOLIC FATTY LIVER DISEASE AND THE METHOD FOR PREVENTION OR TREATMENT OF NON-ALCOHOLIC FATTY LIVER DISEASE USING THE SAME” (priority 2010, published 2013):

Test system: HepG2 cells
Experiment: Free fatty acid-induced intracellular fat accumulation, Nile Red staining
Format: cell-based
Settings: Homo sapiens, 0.5 mM free fatty acid, 24 hours, read-out: inhibitory effects on free fatty acid-induced fat accumulation
Method: By a combined treatment of free fatty acid and a drug, inhibitory effects of individual drugs on intracellular fat accumulation were quantified using a triglyceride staining method. The human hepatoma cell line, HepG2 cells were cultured in a minimum essential medium (MEM) containing 10(v/v) % fetal bovine serum for 48 hours. […] For the negative control group, a MEM containing 1(v/v) % bovine serum albumin was treated with 0.1(v/v) % dimethyl sulfoxide with no addition of free fatty acid. After the culture was complete, the medium was removed and the cells were washed with a phosphate buffer. […] After the staining was complete, the supernatant was discarded and replaced with a phosphate buffer, followed by measurement of fluorescence intensities under conditions of a 488 nm excitation wavelength and a 550 nm emission wavelength. Then, in order to correct a deviation according to the cell count, a phosphate buffer containing 10 μM resazurin (Sigma) dissolved therein was added to the same well. Thereafter, before and after the reaction at 37° C. for 1 hour under light-shielded conditions, fluorescence intensities were measured using a fluorometer under conditions of a 535 nm excitation wavelength and a 580 nm emission wavelength, whereby an increase in fluorescence intensity due to resorufin reduced and formed by the intracellular mitochondrial activity was measured. […]

Work on `CC(C)OC(=O)C(C)(C)Oc1ccc(C(=O)c2ccc(Cl)cc2)cc1` [fenofibrate] yielded an inhibition at 30 µM of 35.6 ± 6.5%.
